From the supplement of paper PMC11659162
This is one part of the list. The data scatter; read single values as rough.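 The cells are a human neuroglioma line carrying a green fluorescent autophagy reporter.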

Columns and labels:
[1] = system: H4 GFP-LC3; test: cell viability (scaled to control) (fraction of control); higher = more viable cells
[2] = system: H4 GFP-LC3; test: ACBP immunofluorescence intensity (scaled to control) (AU (scaled)); higher = more intracellular ACBP/DBI

## CC[C@H](C)[C@H](NC(=O)[C@H](CCCN=C(N)N)NC(=O)[C@H](CCCN=C(N)N)NC(=O)[C@H](CC(C)C)NC(=O)[C@H](Cc1ccccc1)NC(=O)CNC(=O)CNC(=O)[C@@H](N)Cc1ccc(O)cc1)C(=O)N[C@@H](CCCN=C(N)N)C(=O)N1CCC[C@H]1C(=O)O (5 µM)
[1]; 6 h
  cell viability: 0.98
[1]; 24 h
  cell viability: 0.951
[2]; 6 h
  ACBP immunofluorescence intensity: 0.652
[2]; 24 h
  ACBP immunofluorescence intensity: 0.615

## COc1cccc2c1C(=O)c1c(O)c3c(c(O)c1C2=O)C[C@@](O)(C(=O)CO)C[C@@H]3O[C@H]1C[C@H](N)[C@H](O)[C@H](C)O1 (5 µM)
[1]; 6 h
  cell viability: 0.723
[1]; 24 h
  cell viability: 1.33
[2]; 6 h
  ACBP immunofluorescence intensity: 0.995
[2]; 24 h
  ACBP immunofluorescence intensity: 0.66

## CC(CCc1ccc(O)cc1)NCCc1ccc(O)c(O)c1 (stereo unspecified) (5 µM)
[1]; 6 h
  cell viability: 0.944
[1]; 24 h
  cell viability: 0.924
[2]; 6 h
  ACBP immunofluorescence intensity: 0.77
[2]; 24 h
  ACBP immunofluorescence intensity: 0.334

## Cc1ccc(OCC(O)C(C)NC(C)C)c2c1CCC2 (stereo unspecified) (5 µM)
[1]; 6 h
  cell viability: 0.788
[1]; 24 h
  cell viability: 0.778
[2]; 6 h
  ACBP immunofluorescence intensity: 0.84
[2]; 24 h
  ACBP immunofluorescence intensity: 0.385

## O=c1[nH]c(=O)c2nc3ccccc3nc2[nH]1 (5 µM)
[1]; 6 h
  cell viability: 0.995
[1]; 24 h
  cell viability: 1.23
[2]; 6 h
  ACBP immunofluorescence intensity: 0.957
[2]; 24 h
  ACBP immunofluorescence intensity: 0.822

## CCN1CCC[C@H]1CNC(=O)c1c(O)c(Cl)cc(Cl)c1OC (5 µM)
[1]; 6 h
  cell viability: 0.951
[1]; 24 h
  cell viability: 1.25
[2]; 6 h
  ACBP immunofluorescence intensity: 0.892
[2]; 24 h
  ACBP immunofluorescence intensity: 0.796

## NC1(C(=O)O)CC(C(=O)O)C(C(=O)O)C1 (stereo unspecified) (5 µM)
[1]; 6 h
  cell viability: 1.01
[1]; 24 h
  cell viability: 1.34
[2]; 6 h
  ACBP immunofluorescence intensity: 0.875
[2]; 24 h
  ACBP immunofluorescence intensity: 0.524

## COc1ccccc1N1CCN(CCCNc2cc(=O)n(C)c(=O)n2C)CC1 (5 µM)
[1]; 6 h
  cell viability: 0.911
[1]; 24 h
  cell viability: 0.906
[2]; 6 h
  ACBP immunofluorescence intensity: 0.693
[2]; 24 h
  ACBP immunofluorescence intensity: 0.51

## NCCCNCCCCNCCCN (5 µM)
[1]; 6 h
  cell viability: 0.8
[1]; 24 h
  cell viability: 0.364
[2]; 6 h
  ACBP immunofluorescence intensity: 0.987
[2]; 24 h
  ACBP immunofluorescence intensity: 0.491

## CC#C[C@]1(O)CC[C@H]2[C@@H]3CCC4=CC(=O)CCC4=C3[C@@H](c3ccc(N(C)C)cc3)C[C@@]21C (5 µM)
[1]; 6 h
  cell viability: 0.998
[1]; 24 h
  cell viability: 0.973
[2]; 6 h
  ACBP immunofluorescence intensity: 0.186
[2]; 24 h
  ACBP immunofluorescence intensity: 0.546

## Cc1cc2c(s1)Nc1ccccc1N=C2N1CCN(C)CC1 (5 µM)
[1]; 6 h
  cell viability: 0.918
[1]; 24 h
  cell viability: 1.25
[2]; 6 h
  ACBP immunofluorescence intensity: 0.789
[2]; 24 h
  ACBP immunofluorescence intensity: 0.636

## COc1cc2c3cc1Oc1cc(ccc1O)C[C@@H]1c4c(cc(OC)c(O)c4Oc4ccc(cc4)C[C@@H]3N(C)CC2)CC[N+]1(C)C (5 µM)
[1]; 6 h
  cell viability: 0.956
[1]; 24 h
  cell viability: 1.19
[2]; 6 h
  ACBP immunofluorescence intensity: 0.983
[2]; 24 h
  ACBP immunofluorescence intensity: 0.675

## CCN(CC)CC1CCCCN1CC(=O)N1c2ccccc2C(=O)Nc2cccnc21 (stereo unspecified) (5 µM)
[1]; 6 h
  cell viability: 1.05
[1]; 24 h
  cell viability: 1.17
[2]; 6 h
  ACBP immunofluorescence intensity: 0.828
[2]; 24 h
  ACBP immunofluorescence intensity: 0.566

## Nc1nc(NCCc2ccc(O)cc2)nc2nc(-c3ccco3)nn12 (5 µM)
[1]; 6 h
  cell viability: 0.978
[1]; 24 h
  cell viability: 1.12
[2]; 6 h
  ACBP immunofluorescence intensity: 0.99
[2]; 24 h
  ACBP immunofluorescence intensity: 0.632
